From paper PMC8998178
These are yes or no findings as the source states them, for the method shown. Some entries that bind do so weakly or less than the wild type.

Amino acid sequences for entries named in this document (tags omitted).
UniProt P51608: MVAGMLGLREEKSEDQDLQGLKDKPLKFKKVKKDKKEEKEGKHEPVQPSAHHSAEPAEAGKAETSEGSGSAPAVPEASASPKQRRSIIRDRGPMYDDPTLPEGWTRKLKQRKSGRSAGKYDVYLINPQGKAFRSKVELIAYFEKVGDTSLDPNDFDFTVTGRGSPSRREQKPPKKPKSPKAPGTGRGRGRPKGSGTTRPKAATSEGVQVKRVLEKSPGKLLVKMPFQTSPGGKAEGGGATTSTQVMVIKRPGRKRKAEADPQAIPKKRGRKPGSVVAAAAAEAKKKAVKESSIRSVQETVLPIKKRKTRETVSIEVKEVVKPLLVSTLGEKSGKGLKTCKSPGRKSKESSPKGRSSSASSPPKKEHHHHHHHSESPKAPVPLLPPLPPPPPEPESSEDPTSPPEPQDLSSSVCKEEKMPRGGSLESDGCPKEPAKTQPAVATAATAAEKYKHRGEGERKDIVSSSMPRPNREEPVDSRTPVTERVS

Biological target: recombinant full-length human MeCP2 with a Flag-tag (human) (UniProt P51608)
Experiment: ELISA; competition ELISA: Flag-tagged MeCP2 coated (25 µL of 10 µg/mL); 2.5 µM L1-ICD preincubated for 1 h without or with a 5-fold molar excess of L1 peptides; detection with L1 antibody C-2; both purified

binding, binds:
KDETFGEYRSLESDNEEK [synthetic L1 peptide Pc], RPMKDETFGEYRSLESDNEEKAFGSSQPSLNGDIK [synthetic L1 peptide P2], CFIKRSKGGKYSVKDKEDTQVDSEARPMKDETFGE [synthetic L1 peptide P1], EDTQVDSEARPMKDET [synthetic L1 peptide Pb]
